Measured values published in patent publication USRE38117E1, “Trioxane dimer compound having antiproliferative and antitumor activities” (Hauser, Inc., priority 1995, dated 2003).
The amount applied is not stated for every result.

Each molecule was assayed on 60 cell line panel (assay: NCI 60 cell line screen, values over the whole panel).
Type: cell-based

| Structure (SMILES) | Log10GI50 Delta | Log10GI50 Range | Log10LC50 Delta | Log10LC50 Range | Log10TGI Delta | Log10TGI Range |
| --- | --- | --- | --- | --- | --- | --- |
| COC1OC2(C)CCC3CCCC(CCOC(=O)c4ccc(C(=O)OCCC5CCCC6CCC7(C)OOC56C(OC)O7)cc4)C31OO2 (stereo not drawn) [Compound 11, Bis-ester Dimer] | 1.82 | 3.42 | 1.21 | 1.26 | 2.39 | 2.58 |
| C[C@@H]1CC[C@H]2[C@@H](C)C(=O)O[C@@H]3O[C@@]4(C)CC[C@@H]1[C@]32OO4 [QHS, 3,6,9-trimethyl-9,10b-epidioxyperhydropyrano[4,3,2-jk]benzoxepin-2-one, reference compound] | −4.07 | 0.73 | −4.00 | 0.00 | −4.00 | 0.06 |
| CC(=O)O[C@H]1C(=O)[C@@]2(C)[C@H]([C@H](OC(=O)c3ccccc3)[C@]3(O)C[C@H](OC(=O)[C@H](O)[C@@H](NC(=O)c4ccccc4)c4ccccc4)C(C)=C1C3(C)C)[C@]1(OC(C)=O)CO[C@@H]1C[C@@H]2O [Paclitaxel, paclitaxel, reference compound] | −10.15 | 8.00 | −4.06 | 0.45 | −4.54 | 7.20 |
| COC1OC2(C)CCC3CCCC(CCOC(=O)c4cccc(C(=O)OCCC5CCCC6CCC7(C)OOC56C(OC)O7)c4)C31OO2 (stereo not drawn) [Compound 10, Trioxane Bis-ester Dimer] | 2.53 | 4.00 | 0.17 | 0.18 | 2.97 | 3.19 |
| COC1OC2(C)CCC3CCCC(CCOCCC4CCCC5CCC6(C)OOC45C(OC)O6)C31OO2 (stereo not drawn) [Compound 6, Trioxane Ether Dimer] | 1.85 | 3.85 | 1.72 | 1.77 | 2.10 | 2.36 |
